The supplement of paper PMC12819154, “High-throughput peptide-centric local stability assay extends protein–ligand identification to membrane proteins, tissues and bacteria” (Nature Structural & Molecular Biology, 2025)
The list shows a part of the results. Most values lie at the level of the controls, where differences are scatter.

The chains behind the UniProt entries cited, without tags or fusion partners. Where a name states a change or a piece, a line headed by the entry shows the natural chain unless it says otherwise.
UniProt Q91W64: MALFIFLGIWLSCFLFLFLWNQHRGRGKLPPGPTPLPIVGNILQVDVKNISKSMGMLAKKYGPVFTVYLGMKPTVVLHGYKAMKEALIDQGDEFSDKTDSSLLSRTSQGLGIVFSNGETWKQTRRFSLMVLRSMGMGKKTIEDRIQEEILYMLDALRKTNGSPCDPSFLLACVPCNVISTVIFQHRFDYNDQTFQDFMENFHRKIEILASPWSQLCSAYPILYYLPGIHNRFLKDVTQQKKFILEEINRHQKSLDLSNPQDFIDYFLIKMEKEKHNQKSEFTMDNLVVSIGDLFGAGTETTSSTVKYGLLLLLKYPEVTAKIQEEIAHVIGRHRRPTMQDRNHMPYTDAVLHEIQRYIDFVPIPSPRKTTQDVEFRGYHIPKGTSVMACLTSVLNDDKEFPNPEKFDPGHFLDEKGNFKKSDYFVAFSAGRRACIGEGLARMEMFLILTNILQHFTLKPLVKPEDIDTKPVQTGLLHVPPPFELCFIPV
UniProt Q921I2: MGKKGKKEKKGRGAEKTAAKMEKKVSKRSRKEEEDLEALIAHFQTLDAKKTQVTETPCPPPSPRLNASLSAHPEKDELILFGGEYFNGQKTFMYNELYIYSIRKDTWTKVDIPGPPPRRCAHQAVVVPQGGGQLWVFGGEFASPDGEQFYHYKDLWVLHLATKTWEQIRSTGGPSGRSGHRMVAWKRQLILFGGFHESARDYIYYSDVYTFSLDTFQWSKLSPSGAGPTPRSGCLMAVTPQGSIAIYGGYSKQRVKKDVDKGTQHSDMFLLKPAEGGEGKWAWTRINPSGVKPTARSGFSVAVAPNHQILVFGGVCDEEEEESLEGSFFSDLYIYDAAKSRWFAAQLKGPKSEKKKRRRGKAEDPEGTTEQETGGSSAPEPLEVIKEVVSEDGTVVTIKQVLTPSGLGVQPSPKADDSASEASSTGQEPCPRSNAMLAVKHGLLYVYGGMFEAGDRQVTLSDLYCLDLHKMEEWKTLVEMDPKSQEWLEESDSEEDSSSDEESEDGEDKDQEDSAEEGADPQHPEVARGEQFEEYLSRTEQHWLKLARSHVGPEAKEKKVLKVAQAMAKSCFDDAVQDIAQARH
UniProt Q8VHR5: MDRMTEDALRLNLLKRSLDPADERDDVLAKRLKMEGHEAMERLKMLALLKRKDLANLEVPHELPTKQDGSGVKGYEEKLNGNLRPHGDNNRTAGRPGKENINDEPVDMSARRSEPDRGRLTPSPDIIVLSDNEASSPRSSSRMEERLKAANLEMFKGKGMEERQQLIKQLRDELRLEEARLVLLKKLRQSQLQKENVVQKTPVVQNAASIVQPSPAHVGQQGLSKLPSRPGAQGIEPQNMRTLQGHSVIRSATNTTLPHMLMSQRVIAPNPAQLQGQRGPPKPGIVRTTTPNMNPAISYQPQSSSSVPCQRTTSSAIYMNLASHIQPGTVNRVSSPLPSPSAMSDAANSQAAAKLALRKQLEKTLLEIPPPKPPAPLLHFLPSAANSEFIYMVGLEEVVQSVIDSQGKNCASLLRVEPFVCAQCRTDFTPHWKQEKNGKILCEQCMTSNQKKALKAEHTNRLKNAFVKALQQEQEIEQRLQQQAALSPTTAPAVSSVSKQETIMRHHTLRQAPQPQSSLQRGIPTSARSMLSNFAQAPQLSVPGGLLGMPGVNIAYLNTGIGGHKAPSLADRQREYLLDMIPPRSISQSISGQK
UniProt Q91VM3: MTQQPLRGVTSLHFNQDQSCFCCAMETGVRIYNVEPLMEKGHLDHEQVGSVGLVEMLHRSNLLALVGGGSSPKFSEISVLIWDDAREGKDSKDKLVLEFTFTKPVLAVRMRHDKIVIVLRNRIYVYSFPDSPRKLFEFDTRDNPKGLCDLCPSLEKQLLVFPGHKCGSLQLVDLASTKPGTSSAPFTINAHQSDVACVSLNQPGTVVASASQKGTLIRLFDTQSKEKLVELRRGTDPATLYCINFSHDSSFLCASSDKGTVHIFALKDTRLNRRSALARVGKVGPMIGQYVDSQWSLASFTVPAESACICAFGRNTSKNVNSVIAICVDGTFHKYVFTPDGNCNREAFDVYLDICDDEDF
UniProt Q91YK2: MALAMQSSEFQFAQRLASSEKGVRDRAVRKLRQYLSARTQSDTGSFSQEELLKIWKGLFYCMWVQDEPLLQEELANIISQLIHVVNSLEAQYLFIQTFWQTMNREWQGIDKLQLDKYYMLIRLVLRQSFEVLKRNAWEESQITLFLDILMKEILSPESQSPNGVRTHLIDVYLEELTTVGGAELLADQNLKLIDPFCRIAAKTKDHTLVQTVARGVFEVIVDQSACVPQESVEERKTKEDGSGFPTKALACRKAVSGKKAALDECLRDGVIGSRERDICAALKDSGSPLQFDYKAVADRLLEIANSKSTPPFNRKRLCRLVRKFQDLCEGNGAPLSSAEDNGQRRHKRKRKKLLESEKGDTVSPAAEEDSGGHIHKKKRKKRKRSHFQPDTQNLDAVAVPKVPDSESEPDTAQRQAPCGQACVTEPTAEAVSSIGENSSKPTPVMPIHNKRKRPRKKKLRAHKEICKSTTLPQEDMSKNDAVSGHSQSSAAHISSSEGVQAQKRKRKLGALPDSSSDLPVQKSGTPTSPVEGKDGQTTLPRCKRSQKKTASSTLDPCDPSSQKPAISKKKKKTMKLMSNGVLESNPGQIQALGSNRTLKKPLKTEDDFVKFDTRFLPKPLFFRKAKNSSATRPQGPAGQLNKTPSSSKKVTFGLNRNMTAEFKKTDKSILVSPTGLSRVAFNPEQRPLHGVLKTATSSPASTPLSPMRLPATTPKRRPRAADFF
UniProt Q91W53, whole entry: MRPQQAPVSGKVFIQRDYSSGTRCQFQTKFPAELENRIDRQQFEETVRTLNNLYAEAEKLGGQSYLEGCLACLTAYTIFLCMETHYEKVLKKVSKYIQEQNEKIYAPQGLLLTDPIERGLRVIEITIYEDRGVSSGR
UniProt Q99J56: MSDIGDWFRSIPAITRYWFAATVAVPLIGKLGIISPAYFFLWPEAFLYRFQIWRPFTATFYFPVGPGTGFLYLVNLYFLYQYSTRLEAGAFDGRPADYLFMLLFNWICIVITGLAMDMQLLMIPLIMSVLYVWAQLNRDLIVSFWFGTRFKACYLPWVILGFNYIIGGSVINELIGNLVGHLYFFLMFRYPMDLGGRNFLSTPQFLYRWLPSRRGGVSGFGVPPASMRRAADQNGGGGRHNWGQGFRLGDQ
UniProt Q91XD4: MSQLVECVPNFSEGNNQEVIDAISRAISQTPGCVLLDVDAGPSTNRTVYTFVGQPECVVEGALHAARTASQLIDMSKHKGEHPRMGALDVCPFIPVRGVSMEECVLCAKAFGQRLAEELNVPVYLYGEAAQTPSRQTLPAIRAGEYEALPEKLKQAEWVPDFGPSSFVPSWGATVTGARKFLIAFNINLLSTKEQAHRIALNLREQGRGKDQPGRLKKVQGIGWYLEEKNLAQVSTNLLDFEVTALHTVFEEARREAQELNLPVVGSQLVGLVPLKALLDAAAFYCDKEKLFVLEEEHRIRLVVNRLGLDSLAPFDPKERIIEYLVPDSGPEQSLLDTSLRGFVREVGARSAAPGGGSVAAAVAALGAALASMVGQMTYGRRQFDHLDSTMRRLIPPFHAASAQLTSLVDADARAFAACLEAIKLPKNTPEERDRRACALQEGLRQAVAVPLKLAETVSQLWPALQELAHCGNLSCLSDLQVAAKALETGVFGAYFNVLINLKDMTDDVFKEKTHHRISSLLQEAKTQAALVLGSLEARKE
UniProt Q91Z38: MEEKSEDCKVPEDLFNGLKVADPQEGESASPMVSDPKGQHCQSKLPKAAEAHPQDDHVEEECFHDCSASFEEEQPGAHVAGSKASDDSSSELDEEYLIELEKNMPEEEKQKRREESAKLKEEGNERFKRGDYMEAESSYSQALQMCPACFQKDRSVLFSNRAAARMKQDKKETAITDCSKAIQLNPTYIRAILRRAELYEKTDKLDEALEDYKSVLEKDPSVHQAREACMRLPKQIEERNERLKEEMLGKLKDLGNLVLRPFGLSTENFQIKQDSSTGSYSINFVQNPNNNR
UniProt Q91W89: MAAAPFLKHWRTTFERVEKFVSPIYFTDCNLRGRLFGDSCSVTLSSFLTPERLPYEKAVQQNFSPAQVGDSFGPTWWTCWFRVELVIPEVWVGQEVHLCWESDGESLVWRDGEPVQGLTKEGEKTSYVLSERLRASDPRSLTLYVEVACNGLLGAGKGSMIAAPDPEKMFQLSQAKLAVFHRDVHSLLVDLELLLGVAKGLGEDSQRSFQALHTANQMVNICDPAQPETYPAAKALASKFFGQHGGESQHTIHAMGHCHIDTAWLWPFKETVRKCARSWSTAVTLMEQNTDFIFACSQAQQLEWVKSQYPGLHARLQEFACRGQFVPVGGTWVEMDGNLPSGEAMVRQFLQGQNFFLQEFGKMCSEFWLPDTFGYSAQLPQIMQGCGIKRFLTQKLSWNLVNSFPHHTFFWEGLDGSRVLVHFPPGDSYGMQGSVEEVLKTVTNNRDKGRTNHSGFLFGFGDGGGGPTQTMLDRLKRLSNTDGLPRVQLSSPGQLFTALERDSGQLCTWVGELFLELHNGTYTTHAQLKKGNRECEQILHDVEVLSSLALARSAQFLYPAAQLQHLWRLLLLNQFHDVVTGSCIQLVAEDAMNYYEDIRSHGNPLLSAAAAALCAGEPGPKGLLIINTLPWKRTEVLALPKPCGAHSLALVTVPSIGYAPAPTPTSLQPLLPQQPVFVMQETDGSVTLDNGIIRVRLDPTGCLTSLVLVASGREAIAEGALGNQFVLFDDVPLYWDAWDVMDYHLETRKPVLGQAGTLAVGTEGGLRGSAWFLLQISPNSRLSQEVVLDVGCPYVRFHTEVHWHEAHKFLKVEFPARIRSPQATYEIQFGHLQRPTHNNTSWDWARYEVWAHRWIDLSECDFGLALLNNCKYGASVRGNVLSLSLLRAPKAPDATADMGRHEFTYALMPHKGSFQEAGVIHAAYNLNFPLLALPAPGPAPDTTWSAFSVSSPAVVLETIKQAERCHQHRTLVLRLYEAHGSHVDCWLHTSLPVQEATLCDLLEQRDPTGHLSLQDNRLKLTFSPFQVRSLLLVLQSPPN
UniProt Q8VDD8: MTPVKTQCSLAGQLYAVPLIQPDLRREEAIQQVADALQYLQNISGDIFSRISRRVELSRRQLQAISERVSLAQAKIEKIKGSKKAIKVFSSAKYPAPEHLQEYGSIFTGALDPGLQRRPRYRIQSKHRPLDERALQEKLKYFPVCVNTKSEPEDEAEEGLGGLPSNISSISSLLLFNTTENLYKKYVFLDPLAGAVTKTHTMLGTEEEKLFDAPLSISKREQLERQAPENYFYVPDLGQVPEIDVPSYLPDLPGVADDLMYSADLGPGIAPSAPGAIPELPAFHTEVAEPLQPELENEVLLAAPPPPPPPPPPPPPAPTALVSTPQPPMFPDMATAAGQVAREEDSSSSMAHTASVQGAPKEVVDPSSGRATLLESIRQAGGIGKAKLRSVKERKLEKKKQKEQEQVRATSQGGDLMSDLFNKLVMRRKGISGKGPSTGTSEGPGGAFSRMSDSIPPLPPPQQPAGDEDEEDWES
UniProt Q91V36: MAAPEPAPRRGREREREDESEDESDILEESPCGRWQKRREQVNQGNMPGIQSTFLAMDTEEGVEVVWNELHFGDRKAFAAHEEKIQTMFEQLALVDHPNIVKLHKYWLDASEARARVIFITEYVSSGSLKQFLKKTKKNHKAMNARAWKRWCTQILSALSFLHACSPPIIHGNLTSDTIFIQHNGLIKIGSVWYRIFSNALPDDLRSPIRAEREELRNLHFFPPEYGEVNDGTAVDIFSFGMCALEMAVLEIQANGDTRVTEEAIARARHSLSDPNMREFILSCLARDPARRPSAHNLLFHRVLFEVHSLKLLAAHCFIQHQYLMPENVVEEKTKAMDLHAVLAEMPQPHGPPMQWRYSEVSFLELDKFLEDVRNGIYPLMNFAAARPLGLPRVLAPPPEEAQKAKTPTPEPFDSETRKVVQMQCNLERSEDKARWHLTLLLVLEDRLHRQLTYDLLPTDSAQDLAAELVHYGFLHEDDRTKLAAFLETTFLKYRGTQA
UniProt Q8VCX5: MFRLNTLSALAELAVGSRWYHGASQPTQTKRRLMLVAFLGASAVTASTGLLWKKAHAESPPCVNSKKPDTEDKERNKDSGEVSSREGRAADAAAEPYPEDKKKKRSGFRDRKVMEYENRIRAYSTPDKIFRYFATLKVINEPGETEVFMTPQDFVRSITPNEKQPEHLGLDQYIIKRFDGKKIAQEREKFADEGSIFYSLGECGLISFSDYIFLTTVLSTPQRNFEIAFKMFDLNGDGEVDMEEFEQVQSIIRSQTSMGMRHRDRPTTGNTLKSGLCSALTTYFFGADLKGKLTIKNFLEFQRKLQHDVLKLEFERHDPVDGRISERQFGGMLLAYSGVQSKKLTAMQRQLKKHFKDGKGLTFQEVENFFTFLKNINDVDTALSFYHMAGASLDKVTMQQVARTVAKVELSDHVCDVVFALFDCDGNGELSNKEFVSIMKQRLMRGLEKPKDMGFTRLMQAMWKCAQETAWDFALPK

These targets were tested with CN[C@@H]1C[C@H]2O[C@@](C)([C@@H]1OC)n1c3ccccc3c3c4c(c5c6ccccc6n2c5c31)C(=O)NC4 [staurosporine] (assay: log2 fold change of pooled soluble protein (PISA), ligand vs vehicle (log2 ratio); higher = more thermally stabilized). Conditions: ligand concentration: 20 uM; assay format: PISA pool 52.9/55.5/58.6 C.

Target	log2 fold change of pooled soluble protein
UniProt Q91W64	-0.0392
UniProt Q91XQ0	0.307
UniProt Q921I2	0.12
UniProt Q8VHR5	0.0999
UniProt Q91VM3	-0.0762
UniProt Q8VDQ8	-0.0831
UniProt Q91W10	0.263
UniProt Q91W52	-0.328
UniProt Q91YK2	-0.0148
UniProt Q923X4	-0.279
UniProt Q91W53	0.135
UniProt Q99J56	-0.21
UniProt Q91XD4	-0.122
UniProt Q922H9	-0.156
UniProt Q91VF2	0.174
UniProt Q91Z38	0.0862
UniProt Q91W89	0.0452
UniProt Q8VIM9	0.404
UniProt Q99J27	-0.347

Target	log2 fold change of pooled soluble protein
UniProt Q91WN4	0.0245
UniProt Q8VHK9	0.0699
UniProt Q91X21	0.379
UniProt Q8VEB6	-0.297
UniProt Q922Q8	-0.0151
UniProt Q91XE4	-0.00077
UniProt Q8VDD8	0.0527
UniProt Q91XD6	-0.0296
UniProt Q91V36	0.0473
UniProt Q91WQ3	-0.0228
UniProt Q8VDM6	-0.0974
UniProt Q91YE3	0.254
UniProt Q8VCX5	-0.14
UniProt Q925F2	0.00767
UniProt Q8VCN5	-0.031
UniProt Q91X91	-0.0967
UniProt Q91X52	-0.258
UniProt Q91X58	-0.108

Copied from the list.
log2 fold change of pooled soluble protein, UniProt Q8VHK9 is entered as 0.0699
log2 fold change of pooled soluble protein, UniProt Q8VCN5 is entered as -0.031
